Results are given in words; binding and its absence hold for the method and conditions named. For some assays here: Binding seen in cells or lysates may run through a third protein. For some assays here: Tags and fused reporters may be left off the sequences shown.
T1: AtBBX19 (BiFC construct) (Arabidopsis thaliana) (UniProt C0SVM5)
T1 sequence: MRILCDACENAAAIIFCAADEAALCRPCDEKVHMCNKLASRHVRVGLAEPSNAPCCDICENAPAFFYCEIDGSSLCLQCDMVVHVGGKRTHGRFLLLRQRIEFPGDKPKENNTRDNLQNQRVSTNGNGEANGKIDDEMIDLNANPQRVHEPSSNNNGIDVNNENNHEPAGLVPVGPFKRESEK

T2: AtBBX19 (BD fusion) (Arabidopsis thaliana) (UniProt C0SVM5)
T2 sequence: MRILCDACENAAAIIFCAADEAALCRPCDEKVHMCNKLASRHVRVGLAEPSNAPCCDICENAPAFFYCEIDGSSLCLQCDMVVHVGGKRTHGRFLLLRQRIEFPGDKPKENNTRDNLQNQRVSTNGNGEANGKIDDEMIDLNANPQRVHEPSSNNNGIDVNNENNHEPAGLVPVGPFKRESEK


Assays:
[1] = target: T1, AtBBX19 (BiFC construct) (Arabidopsis thaliana); test: split reporter; BiFC with YFP^N and YFP^C fusions co-infiltrated by A. tumefaciens GV3101 into N. benthamiana leaves; YFP fluorescence by confocal microscopy 60 h after infiltration
[2] = target: T2, AtBBX19 (BD fusion) (Arabidopsis thaliana); test: two-hybrid; Matchmaker GAL4 system, yeast strain Y2HGold; bait in pGBKT7 (BD), prey in pGADT7 (AD); growth on SD/-Trp-Leu, then spot assay on SD/-Trp-Leu-His-Ade

binding [1] | binding [2] | Binder
no binding | – | AtABF3 (BiFC construct) (protein, UniProt Q9M7Q3 1-454) MGSRLNFKSFVDGVSEQQPTVGTSLPLTRQNSVFSLTFDEFQNSWGGGIGKDFGSMNMDELLKNIWTAEESHSMMGNNTSYTNISNGNSGNTVINGGGNNIGGLAVGVGGESGGFFTGGSLQRQGSLTLPRTISQKRVDDVWKELMKEDDIGNGVVNGGTSGIPQRQQTLGEMTLEEFLVRAGVVREEPQPVESVTNFNGGFYGFGSNGGLGTASNGFVANQPQDLSGNGVAVRQDLLTAQTQPLQMQQPQMVQQPQMVQQPQQLIQTQERPFPKQTTIAFSNTVDVVNRSQPATQCQEVKPSILGIHNHPMNNNLLQAVDFKTGVTVAAVSPGSQMSPDLTPKSALDASLSPVPYMFGRVRKTGAVLEKVIERRQKRMIKNRESAARSRARKQAYTMELEAEIAQLKELNEELQKKQVEIMEKQKNQLLEPLRQPWGMGCKRQCLRRTLTGPW
– | no binding | AtABF3 (AD fusion) (protein, UniProt Q9M7Q3 1-454) MGSRLNFKSFVDGVSEQQPTVGTSLPLTRQNSVFSLTFDEFQNSWGGGIGKDFGSMNMDELLKNIWTAEESHSMMGNNTSYTNISNGNSGNTVINGGGNNIGGLAVGVGGESGGFFTGGSLQRQGSLTLPRTISQKRVDDVWKELMKEDDIGNGVVNGGTSGIPQRQQTLGEMTLEEFLVRAGVVREEPQPVESVTNFNGGFYGFGSNGGLGTASNGFVANQPQDLSGNGVAVRQDLLTAQTQPLQMQQPQMVQQPQMVQQPQQLIQTQERPFPKQTTIAFSNTVDVVNRSQPATQCQEVKPSILGIHNHPMNNNLLQAVDFKTGVTVAAVSPGSQMSPDLTPKSALDASLSPVPYMFGRVRKTGAVLEKVIERRQKRMIKNRESAARSRARKQAYTMELEAEIAQLKELNEELQKKQVEIMEKQKNQLLEPLRQPWGMGCKRQCLRRTLTGPW

Reference: paper PMC7496117, “A zinc finger protein BBX19 interacts with ABF3 to affect drought tolerance negatively in chrysanthemum”
